Reference: US20130338077A1 (INDIANA UNIVERSITY RESEARCH AND TECHNOLOGY, published 2013)
No constants are given. Whether binding was seen depends on the method and setting. Some binding calls cover weakened binding; strength is not graded here.

Protein sequences, listed by entry. Tags and fused reporters are not part of them.
UniProt Q04206: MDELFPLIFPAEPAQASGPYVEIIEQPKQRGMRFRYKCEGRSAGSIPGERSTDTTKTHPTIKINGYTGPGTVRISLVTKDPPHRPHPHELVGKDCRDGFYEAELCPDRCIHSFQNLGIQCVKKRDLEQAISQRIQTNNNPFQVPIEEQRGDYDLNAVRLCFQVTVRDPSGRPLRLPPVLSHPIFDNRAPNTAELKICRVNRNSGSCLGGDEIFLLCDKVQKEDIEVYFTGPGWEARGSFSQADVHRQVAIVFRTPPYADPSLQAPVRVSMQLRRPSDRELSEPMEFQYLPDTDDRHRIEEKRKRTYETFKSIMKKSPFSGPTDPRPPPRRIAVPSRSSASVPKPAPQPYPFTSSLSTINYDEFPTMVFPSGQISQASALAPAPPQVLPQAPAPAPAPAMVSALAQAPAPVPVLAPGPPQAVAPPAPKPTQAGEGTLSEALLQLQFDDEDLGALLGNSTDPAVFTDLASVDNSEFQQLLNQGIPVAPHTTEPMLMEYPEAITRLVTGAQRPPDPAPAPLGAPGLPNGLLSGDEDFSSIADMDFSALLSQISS

Experiments:
[1] = biological target: recombinant human p65 protein, full-length, with DDK (r-p65:DDK) (human) (UniProt Q04206); assay: Scatchard plot of the ELISA data for GILZ-P and r-p65
[2] = biological target: recombinant human p65 protein, full-length, with DDK (r-p65:DDK) (human) (UniProt Q04206); assay: kinetic ELISA: plate-bound GILZ-P probed with r-p65, velocity as mean optical density/min
[3] = biological target: recombinant human p65 protein, full-length, with DDK (r-p65:DDK) (human) (UniProt Q04206); assay: ELISA: plates coated with falling concentrations of GILZ-P, probed with 40 uM r-p65:DDK, detected with anti-DDK

Measured: binding

B1: GILZ-peptide (GILZ-P), synthetic peptide from the carboxy terminus of GILZ (peptide)
peptide: CLSPEEPAPESPQVPEAPGGSAV
modifications: amino terminal acetylation; C-terminal peptide amide
binds: [1] | [2] | [3]
